Earlier results, collected in paper PMC7115876 (Nature, 2020).

Tested on: β1AR
Conditions: cited from earlier work

For `COc1ccc(CC(C)NCC(O)c2ccc(O)c(NC=O)c2)cc1` (stereo not shown) [formoterol], the “agonist efficacy for the coupling of Gs” value is listed as “full agonist”.
